Counter-ions that a name gives are not always drawn. The list shows a part of the results. The calls rarely recur for the same compound in another form.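 Kinases, fused to nanoluciferase, were expressed in K562 cells; luminescence was measured every 4 h from 2 to 18 h as percent of control (DMSO = 100%, positive control = 0%). A time point is decreased if signal falls significantly (2 sigma). Hits were called by the authors by a rule that is not shown; the count of time points alone does not decide it.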
Experiments:
Assay in all cases: kinase-Nluc reporter destabilization hit call (1 = scored as downregulated) (binary); higher = compound decreases kinase abundance
Details in all cases: K562; 2-18 h
[1] = molecular target: CDK7 (UniProt P50613)
[2] = molecular target: CDK9 (UniProt P50750)
[3] = molecular target: CHEK2 (UniProt O96017)
[4] = molecular target: CSF1R (UniProt P07333)
[5] = molecular target: CSK (UniProt P41240)
[6] = molecular target: CSNK1A1 (UniProt P48729)
[7] = molecular target: CSNK1D (UniProt P48730)
[8] = molecular target: DDR1 (UniProt Q08345)
[9] = molecular target: DYRK1B (UniProt Q9Y463)
[10] = molecular target: DYRK2 (UniProt Q92630)
[11] = molecular target: EGFR (UniProt P00533)
[12] = molecular target: EGFR_G719S (UniProt P00533)
[13] = molecular target: EGFR_G719S_T790M (UniProt P00533)
[14] = molecular target: EGFR_L718V (UniProt P00533)
[15] = molecular target: EGFR_L858R (UniProt P00533)
[16] = molecular target: EGFR_L861Q (UniProt P00533)
[17] = molecular target: EGFR_T790M (UniProt P00533)
[18] = molecular target: EPHA2 (UniProt P29317)
[19] = molecular target: ERBB3 (UniProt P21860)
[20] = molecular target: ERBB4_R711C (clone: ERBB4_mut) (UniProt Q15303)

The chains behind the UniProt entries cited, without tags or fusion partners. Where a name states a change or a piece, a line headed by the entry shows the natural chain unless it says otherwise.
UniProt P50613: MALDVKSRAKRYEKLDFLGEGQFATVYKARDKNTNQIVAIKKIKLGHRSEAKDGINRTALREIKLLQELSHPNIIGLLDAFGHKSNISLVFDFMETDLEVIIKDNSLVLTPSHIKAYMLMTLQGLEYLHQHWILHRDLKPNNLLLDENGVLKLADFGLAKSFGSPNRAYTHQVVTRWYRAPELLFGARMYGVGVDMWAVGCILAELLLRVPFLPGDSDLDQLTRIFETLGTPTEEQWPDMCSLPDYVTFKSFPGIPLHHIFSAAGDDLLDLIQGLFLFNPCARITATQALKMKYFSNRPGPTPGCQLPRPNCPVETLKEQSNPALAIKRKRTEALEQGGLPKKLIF
UniProt P50750, whole entry: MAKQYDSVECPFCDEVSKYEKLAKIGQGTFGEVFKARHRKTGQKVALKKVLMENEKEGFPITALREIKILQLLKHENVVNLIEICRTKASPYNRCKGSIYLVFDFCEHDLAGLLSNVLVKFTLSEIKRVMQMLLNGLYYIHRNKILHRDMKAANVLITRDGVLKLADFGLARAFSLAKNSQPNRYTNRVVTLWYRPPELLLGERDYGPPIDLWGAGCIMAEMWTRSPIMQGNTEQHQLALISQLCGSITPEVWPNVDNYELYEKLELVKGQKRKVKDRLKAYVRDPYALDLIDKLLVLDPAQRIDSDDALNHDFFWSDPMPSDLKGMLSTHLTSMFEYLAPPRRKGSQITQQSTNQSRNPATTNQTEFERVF
UniProt O96017, whole entry: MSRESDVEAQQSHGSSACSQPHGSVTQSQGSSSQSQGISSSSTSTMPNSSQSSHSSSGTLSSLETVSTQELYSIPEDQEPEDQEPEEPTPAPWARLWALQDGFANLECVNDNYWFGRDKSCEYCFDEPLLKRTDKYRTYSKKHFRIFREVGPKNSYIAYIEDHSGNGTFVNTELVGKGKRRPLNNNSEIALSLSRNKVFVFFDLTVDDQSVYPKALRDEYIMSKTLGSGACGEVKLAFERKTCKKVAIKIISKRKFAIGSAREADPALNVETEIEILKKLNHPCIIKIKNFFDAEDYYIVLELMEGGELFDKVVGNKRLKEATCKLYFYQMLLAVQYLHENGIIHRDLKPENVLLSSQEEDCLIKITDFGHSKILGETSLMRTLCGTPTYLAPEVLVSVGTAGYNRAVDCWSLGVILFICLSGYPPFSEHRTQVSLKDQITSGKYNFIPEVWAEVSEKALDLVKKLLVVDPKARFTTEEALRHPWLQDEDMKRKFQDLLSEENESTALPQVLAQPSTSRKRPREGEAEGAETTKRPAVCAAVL
UniProt P41240: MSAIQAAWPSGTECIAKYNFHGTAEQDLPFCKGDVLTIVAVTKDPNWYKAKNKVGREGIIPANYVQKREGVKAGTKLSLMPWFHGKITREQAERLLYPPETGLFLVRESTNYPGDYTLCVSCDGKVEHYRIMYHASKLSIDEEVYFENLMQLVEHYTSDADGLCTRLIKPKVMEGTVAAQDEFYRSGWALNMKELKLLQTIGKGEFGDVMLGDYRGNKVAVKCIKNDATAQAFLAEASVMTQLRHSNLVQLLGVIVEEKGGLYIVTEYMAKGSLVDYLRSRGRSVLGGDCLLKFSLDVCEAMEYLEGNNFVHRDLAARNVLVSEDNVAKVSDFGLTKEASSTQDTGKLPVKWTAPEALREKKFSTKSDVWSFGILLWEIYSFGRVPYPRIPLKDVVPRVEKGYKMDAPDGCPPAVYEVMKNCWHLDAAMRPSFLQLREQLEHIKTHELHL
UniProt P48730: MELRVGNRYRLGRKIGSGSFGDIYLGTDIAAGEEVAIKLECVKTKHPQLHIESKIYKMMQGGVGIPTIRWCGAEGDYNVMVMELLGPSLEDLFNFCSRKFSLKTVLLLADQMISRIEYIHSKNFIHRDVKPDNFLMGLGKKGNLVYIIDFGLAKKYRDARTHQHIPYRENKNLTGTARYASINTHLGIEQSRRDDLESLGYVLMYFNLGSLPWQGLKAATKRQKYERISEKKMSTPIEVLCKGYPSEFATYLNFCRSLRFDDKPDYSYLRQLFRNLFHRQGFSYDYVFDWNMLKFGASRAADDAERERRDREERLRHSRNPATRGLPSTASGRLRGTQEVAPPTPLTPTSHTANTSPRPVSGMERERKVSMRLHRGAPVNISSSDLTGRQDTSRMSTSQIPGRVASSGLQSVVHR
UniProt Q08345: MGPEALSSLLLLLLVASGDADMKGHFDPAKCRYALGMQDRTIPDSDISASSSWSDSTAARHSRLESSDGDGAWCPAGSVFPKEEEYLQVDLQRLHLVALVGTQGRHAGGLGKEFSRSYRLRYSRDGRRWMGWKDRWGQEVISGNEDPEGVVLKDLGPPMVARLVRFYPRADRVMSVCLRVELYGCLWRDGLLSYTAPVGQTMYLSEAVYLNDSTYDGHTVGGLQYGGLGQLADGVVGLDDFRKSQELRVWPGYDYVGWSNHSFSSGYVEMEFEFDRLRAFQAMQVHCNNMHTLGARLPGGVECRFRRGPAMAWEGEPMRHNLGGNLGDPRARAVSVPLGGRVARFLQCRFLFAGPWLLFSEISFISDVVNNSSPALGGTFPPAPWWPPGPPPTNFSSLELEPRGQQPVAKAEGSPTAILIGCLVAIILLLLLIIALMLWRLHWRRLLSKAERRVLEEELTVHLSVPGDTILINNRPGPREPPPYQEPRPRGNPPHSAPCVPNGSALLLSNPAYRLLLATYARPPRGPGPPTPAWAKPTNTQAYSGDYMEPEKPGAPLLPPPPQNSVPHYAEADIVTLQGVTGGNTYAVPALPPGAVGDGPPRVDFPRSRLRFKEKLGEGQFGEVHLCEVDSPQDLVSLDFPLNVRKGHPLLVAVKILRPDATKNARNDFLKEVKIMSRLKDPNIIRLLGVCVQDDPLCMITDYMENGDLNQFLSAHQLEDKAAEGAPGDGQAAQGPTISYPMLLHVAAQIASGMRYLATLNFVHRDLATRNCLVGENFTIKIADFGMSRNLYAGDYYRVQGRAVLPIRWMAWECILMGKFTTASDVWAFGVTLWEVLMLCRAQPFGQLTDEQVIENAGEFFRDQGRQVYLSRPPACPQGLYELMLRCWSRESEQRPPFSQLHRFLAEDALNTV
UniProt Q9Y463, whole entry, looked up: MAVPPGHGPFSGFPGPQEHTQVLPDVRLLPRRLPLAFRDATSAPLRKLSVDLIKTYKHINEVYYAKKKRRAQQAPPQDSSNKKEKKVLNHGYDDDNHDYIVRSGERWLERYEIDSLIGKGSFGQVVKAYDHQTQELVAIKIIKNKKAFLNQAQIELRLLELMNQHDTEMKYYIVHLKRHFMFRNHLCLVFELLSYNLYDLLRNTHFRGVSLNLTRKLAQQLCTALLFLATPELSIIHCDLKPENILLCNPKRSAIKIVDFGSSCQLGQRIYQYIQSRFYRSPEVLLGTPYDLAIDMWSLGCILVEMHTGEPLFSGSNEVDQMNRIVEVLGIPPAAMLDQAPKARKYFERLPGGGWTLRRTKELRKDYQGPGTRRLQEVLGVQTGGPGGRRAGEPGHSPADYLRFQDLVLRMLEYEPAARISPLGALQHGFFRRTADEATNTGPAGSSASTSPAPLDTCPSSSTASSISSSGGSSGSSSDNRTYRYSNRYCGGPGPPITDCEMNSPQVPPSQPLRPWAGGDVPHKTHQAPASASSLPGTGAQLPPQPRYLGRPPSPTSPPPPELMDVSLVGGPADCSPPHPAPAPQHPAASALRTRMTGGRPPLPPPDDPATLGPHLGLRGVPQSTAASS
UniProt Q92630: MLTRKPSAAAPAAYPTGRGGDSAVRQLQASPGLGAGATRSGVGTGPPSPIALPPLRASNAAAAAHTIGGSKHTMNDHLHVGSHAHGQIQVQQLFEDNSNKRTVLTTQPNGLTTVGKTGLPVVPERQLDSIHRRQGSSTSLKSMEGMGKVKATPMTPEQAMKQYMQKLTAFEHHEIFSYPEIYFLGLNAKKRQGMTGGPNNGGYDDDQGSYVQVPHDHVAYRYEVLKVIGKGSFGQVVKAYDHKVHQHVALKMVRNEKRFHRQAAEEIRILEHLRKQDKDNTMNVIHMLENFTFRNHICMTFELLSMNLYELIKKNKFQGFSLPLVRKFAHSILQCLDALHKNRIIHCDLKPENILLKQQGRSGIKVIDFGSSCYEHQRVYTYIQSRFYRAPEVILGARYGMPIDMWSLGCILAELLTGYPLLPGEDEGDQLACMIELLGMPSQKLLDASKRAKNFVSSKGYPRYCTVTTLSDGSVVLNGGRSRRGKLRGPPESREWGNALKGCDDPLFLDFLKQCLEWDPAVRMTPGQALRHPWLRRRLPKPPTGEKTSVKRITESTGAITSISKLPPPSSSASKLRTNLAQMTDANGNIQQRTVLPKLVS
UniProt P29317, whole entry: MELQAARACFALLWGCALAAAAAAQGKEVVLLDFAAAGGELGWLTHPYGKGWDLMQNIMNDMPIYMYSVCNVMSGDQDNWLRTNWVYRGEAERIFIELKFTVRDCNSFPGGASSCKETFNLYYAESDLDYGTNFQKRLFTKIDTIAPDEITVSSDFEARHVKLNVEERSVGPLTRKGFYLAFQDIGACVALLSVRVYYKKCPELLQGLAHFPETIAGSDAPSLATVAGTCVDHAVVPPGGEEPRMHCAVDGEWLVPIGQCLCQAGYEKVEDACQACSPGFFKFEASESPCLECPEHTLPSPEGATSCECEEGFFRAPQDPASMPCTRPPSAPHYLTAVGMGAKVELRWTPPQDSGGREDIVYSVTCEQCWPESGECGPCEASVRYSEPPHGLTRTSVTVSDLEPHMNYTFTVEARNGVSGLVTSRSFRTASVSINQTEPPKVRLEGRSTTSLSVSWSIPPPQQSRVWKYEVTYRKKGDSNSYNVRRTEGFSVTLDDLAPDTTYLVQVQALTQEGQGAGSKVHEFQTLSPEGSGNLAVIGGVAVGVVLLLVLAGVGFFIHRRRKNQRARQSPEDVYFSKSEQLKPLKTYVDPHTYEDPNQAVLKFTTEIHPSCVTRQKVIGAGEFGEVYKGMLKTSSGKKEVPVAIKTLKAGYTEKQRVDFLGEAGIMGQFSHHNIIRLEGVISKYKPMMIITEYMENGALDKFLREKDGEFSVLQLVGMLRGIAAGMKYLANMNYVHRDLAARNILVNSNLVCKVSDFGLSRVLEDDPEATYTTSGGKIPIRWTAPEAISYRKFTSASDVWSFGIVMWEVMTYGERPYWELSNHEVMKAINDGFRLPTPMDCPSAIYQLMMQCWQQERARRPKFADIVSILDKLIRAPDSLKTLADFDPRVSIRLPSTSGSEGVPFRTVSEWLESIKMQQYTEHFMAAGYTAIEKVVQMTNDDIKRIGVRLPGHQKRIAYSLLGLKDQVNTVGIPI
UniProt P21860, whole entry: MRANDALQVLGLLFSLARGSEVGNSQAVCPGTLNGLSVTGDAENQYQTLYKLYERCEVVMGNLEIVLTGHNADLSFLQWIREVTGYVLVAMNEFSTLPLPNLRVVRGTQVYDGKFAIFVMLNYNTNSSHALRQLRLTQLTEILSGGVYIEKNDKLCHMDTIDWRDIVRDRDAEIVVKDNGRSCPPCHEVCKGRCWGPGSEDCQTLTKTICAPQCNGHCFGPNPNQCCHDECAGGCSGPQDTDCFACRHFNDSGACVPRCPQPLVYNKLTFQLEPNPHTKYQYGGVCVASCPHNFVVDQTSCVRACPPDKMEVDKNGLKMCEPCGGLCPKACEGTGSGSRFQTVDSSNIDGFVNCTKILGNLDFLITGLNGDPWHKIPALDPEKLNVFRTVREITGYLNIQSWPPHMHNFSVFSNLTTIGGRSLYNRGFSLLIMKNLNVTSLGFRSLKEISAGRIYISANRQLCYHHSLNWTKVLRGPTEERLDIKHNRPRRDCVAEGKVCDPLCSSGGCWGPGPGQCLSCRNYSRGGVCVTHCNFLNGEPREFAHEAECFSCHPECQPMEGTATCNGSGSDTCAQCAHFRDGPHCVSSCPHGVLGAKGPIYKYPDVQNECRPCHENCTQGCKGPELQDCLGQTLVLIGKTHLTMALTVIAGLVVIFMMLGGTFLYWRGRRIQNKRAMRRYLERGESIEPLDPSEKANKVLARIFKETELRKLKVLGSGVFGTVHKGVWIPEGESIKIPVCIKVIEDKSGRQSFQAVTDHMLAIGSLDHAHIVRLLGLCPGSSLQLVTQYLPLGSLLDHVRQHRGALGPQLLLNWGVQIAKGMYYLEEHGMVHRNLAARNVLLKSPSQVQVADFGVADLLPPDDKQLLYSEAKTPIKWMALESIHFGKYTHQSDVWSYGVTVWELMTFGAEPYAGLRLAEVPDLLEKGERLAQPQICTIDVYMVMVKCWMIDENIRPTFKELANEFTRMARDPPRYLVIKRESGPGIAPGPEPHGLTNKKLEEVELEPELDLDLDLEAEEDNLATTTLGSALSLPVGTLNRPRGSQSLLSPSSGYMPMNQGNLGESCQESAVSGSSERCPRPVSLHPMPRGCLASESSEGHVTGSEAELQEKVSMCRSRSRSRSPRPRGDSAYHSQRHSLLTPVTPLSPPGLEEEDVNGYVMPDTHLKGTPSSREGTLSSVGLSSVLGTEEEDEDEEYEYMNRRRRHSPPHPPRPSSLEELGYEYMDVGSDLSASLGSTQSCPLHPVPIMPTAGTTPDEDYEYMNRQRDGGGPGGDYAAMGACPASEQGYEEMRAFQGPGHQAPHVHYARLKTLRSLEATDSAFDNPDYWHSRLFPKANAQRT

Measured: kinase-Nluc reporter destabilization hit call

CCc1cc2c(cc1N1CCC(N3CCOCC3)CC1)C(C)(C)c1[nH]c3cc(C#N)ccc3c1C2=O [Alectinib (Hydrochloride)] (2 µM)
inactive: [1] 0 | [2] 0 | [3] 0 | [4] 0 | [5] 0 | [6] 0 | [7] 0 | [8] 0 | [9] 0 | [10] 0 | [11] 0 | [12] 0 | [13] 0 | [14] 0 | [15] 0 | [16] 0 | [17] 0 | [18] 0 | [19] 0 | [20] 0

C=CC(=O)Nc1cccc(Nc2nc(Nc3ccc(NC4CN(CCF)C4)cc3OC)ncc2C(F)(F)F)c1 (2.5 µM)
inactive: [1] 0 | [2] 0 | [3] 0 | [4] 0 | [5] 0 | [6] 0 | [7] 0 | [8] 0 | [9] 0 | [10] 0 | [11] 0 | [12] 0 | [13] 0 | [14] 0 | [15] 0 | [16] 0 | [17] 0 | [18] 0 | [19] 0 | [20] 0

Nc1ncnc2c1c(-c1ccc(Oc3ccccc3)cc1)nn2C1CCCC1 (2.5 µM)
inactive: [1] 0 | [2] 0 | [3] 0 | [4] 0 | [5] 0 | [6] 0 | [7] 0 | [8] 0 | [9] 0 | [10] 0 | [11] 0 | [12] 0 | [13] 0 | [14] 0 | [15] 0 | [16] 0 | [17] 0 | [18] 0 | [19] 0 | [20] 0

S=C(SSC(=S)N1CCOCC1)N1CCOCC1 (10 µM)
inactive: [1] 0 | [2] 0 | [3] 0 | [4] 0 | [5] 0 | [6] 0 | [7] 0 | [8] 0 | [9] 0 | [10] 0 | [11] 0 | [12] 0 | [13] 0 | [14] 0 | [15] 0 | [16] 0 | [17] 0 | [18] 0 | [19] 0 | [20] 0

FC(F)(F)c1ccc(CNc2ccc(Cc3c[nH]c4ncccc34)cn2)cc1 (10 µM)
inactive: [1] 0 | [2] 0 | [3] 0 | [4] 0 | [5] 0 | [6] 0 | [7] 0 | [8] 0 | [9] 0 | [10] 0 | [11] 0 | [12] 0 | [13] 0 | [14] 0 | [15] 0 | [16] 0 | [17] 0 | [18] 0 | [19] 0 | [20] 0

Cc1cccc(-c2[nH]ncc2-c2ccc(F)c(-c3cnn(CCO)c3)c2)n1 (10 µM)
inactive: [1] 0 | [2] 0 | [3] 0 | [4] 0 | [5] 0 | [6] 0 | [7] 0 | [8] 0 | [9] 0 | [10] 0 | [11] 0 | [12] 0 | [13] 0 | [14] 0 | [15] 0 | [16] 0 | [17] 0 | [18] 0 | [19] 0 | [20] 0

Cc1cccc(Oc2cnc(=O)[nH]c2)c1 [Tolimidone] (10 µM)
inactive: [1] 0 | [2] 0 | [3] 0 | [4] 0 | [5] 0 | [6] 0 | [7] 0 | [8] 0 | [9] 0 | [10] 0 | [11] 0 | [12] 0 | [13] 0 | [14] 0 | [15] 0 | [16] 0 | [17] 0 | [18] 0 | [19] 0 | [20] 0

CCN1CCN(Cc2ccc(-c3cc4c(N[C@H](C)c5ccccc5)ncnc4[nH]3)cc2)CC1 (2.5 µM)
inactive: [1] 0 | [2] 0 | [3] 0 | [4] 0 | [5] 0 | [6] 0 | [7] 0 | [8] 0 | [9] 0 | [10] 0 | [11] 0 | [12] 0 | [13] 0 | [14] 0 | [15] 0 | [16] 0 | [17] 0 | [18] 0 | [19] 0 | [20] 0

COc1cc2ncc(-c3ccccc3)nc2cc1OC [Tyrphostin AG1296] (10 µM)
inactive: [1] 0 | [2] 0 | [3] 0 | [4] 0 | [5] 0 | [6] 0 | [7] 0 | [8] 0 | [9] 0 | [10] 0 | [11] 0 | [12] 0 | [13] 0 | [14] 0 | [15] 0 | [16] 0 | [17] 0 | [18] 0 | [19] 0 | [20] 0

Cc1ccc(C(=O)Nc2ccc(Oc3cc4cnn(C)c4cc3-c3cn[nH]c3)c(F)c2)c(=O)n1-c1ccc(F)cc1 [Merestinib dihydrochloride] (2.5 µM)
inactive: [1] 0 | [2] 0 | [3] 0 | [4] 0 | [5] 0 | [6] 0 | [7] 0 | [8] 0 | [9] 0 | [10] 0 | [11] 0 | [12] 0 | [13] 0 | [14] 0 | [15] 0 | [16] 0 | [17] 0 | [18] 0 | [19] 0 | [20] 0

O=C(N/N=C/c1coc2ccccc2c1=O)c1cccnc1 (10 µM)
inactive: [1] 0 | [2] 0 | [3] 0 | [4] 0 | [5] 0 | [6] 0 | [7] 0 | [8] 0 | [9] 0 | [10] 0 | [11] 0 | [12] 0 | [13] 0 | [14] 0 | [15] 0 | [16] 0 | [17] 0 | [18] 0 | [19] 0 | [20] 0

N#CCC1CCN(c2nc(Nc3ccc(N4CCC(O)CC4)cc3)c3c(=O)[nH]ncc3n2)CC1 [Gusacitinib] (10 µM)
inactive: [1] 0 | [2] 0 | [3] 0 | [4] 0 | [5] 0 | [6] 0 | [7] 0 | [8] 0 | [9] 0 | [10] 0 | [11] 0 | [12] 0 | [13] 0 | [14] 0 | [15] 0 | [16] 0 | [17] 0 | [18] 0 | [19] 0 | [20] 0

COc1cc2ncnc(Nc3ccc(Cl)cc3F)c2cc1OC (10 µM)
inactive: [1] 0 | [2] 0 | [3] 0 | [4] 0 | [5] 0 | [6] 0 | [7] 0 | [8] 0 | [9] 0 | [10] 0 | [11] 0 | [12] 0 | [13] 0 | [14] 0 | [15] 0 | [16] 0 | [17] 0 | [18] 0 | [19] 0 | [20] 0

CCS(=O)(=O)Nc1ccc2[nH]c(O)c(C(=Nc3ccc(CN4CCCCC4)cc3)c3ccccc3)c2c1 [Hesperadin] (2.5 µM)
inactive: [1] 0 | [2] 0 | [3] 0 | [4] 0 | [5] 0 | [6] 0 | [7] 0 | [8] 0 | [9] 0 | [10] 0 | [11] 0 | [12] 0 | [13] 0 | [14] 0 | [15] 0 | [16] 0 | [17] 0 | [18] 0 | [19] 0 | [20] 0

CC(C)(C)c1cc(O)ccc1O (10 µM)
inactive: [1] 0 | [2] 0 | [3] 0 | [4] 0 | [5] 0 | [6] 0 | [7] 0 | [8] 0 | [9] 0 | [10] 0 | [11] 0 | [12] 0 | [13] 0 | [14] 0 | [15] 0 | [16] 0 | [17] 0 | [18] 0 | [19] 0 | [20] 0

Cn1ncc(Cl)c1-c1cc(C(=O)N[C@H](CN)Cc2ccc(F)c(F)c2)oc1Cl [Uprosertib] (10 µM)
inactive: [1] 0 | [2] 0 | [3] 0 | [4] 0 | [5] 0 | [6] 0 | [7] 0 | [8] 0 | [9] 0 | [10] 0 | [11] 0 | [12] 0 | [13] 0 | [14] 0 | [15] 0 | [16] 0 | [17] 0 | [18] 0 | [19] 0 | [20] 0

O=C(NCCN1CCCC1)c1cc(-c2ccc(CN3CCOCC3)cc2)nc2ccc(F)cc12 (10 µM)
inactive: [1] 0 | [2] 0 | [3] 0 | [4] 0 | [5] 0 | [6] 0 | [7] 0 | [8] 0 | [9] 0 | [10] 0 | [11] 0 | [12] 0 | [13] 0 | [14] 0 | [15] 0 | [16] 0 | [17] 0 | [18] 0 | [19] 0 | [20] 0

CS(=O)(=O)Nc1cc(-c2ccc3ncnc(Nc4ccc(F)c(Cl)c4)c3c2)cnc1Cl (2.5 µM)
inactive: [1] 0 | [2] 0 | [3] 0 | [4] 0 | [5] 0 | [6] 0 | [7] 0 | [8] 0 | [9] 0 | [10] 0 | [11] 0 | [12] 0 | [13] 0 | [14] 0 | [15] 0 | [16] 0 | [17] 0 | [18] 0 | [19] 0 | [20] 0

3 entries from above, sorted by molecular weight, low to high.
Cc1cccc(-c2[nH]ncc2-c2ccc(F)c(-c3cnn(CCO)c3)c2)n1 (10 µM)
inactive: [1] 0 | [2] 0 | [3] 0 | [4] 0 | [5] 0 | [6] 0 | [7] 0 | [8] 0 | [9] 0 | [10] 0 | [11] 0 | [12] 0 | [13] 0 | [14] 0 | [15] 0 | [16] 0 | [17] 0 | [18] 0 | [19] 0 | [20] 0

CCS(=O)(=O)Nc1ccc2[nH]c(O)c(C(=Nc3ccc(CN4CCCCC4)cc3)c3ccccc3)c2c1 [Hesperadin] (2.5 µM)
inactive: [1] 0 | [2] 0 | [3] 0 | [4] 0 | [5] 0 | [6] 0 | [7] 0 | [8] 0 | [9] 0 | [10] 0 | [11] 0 | [12] 0 | [13] 0 | [14] 0 | [15] 0 | [16] 0 | [17] 0 | [18] 0 | [19] 0 | [20] 0

C=CC(=O)Nc1cccc(Nc2nc(Nc3ccc(NC4CN(CCF)C4)cc3OC)ncc2C(F)(F)F)c1 (2.5 µM)
inactive: [1] 0 | [2] 0 | [3] 0 | [4] 0 | [5] 0 | [6] 0 | [7] 0 | [8] 0 | [9] 0 | [10] 0 | [11] 0 | [12] 0 | [13] 0 | [14] 0 | [15] 0 | [16] 0 | [17] 0 | [18] 0 | [19] 0 | [20] 0

Reference: the supplement of paper PMC12823440, “Inhibitors supercharge kinase turnover through native proteolytic circuits” (Nature, 2025)
